Laboratory results reported in article PMC11404819.
These are yes or no findings as the source states them, for the method shown. Some binding calls cover weakened binding; strength is not graded here.

Target: T1, C-terminal truncation of Ffh (residues 1-432) (UniProt P0AGD7)
T1 sequence: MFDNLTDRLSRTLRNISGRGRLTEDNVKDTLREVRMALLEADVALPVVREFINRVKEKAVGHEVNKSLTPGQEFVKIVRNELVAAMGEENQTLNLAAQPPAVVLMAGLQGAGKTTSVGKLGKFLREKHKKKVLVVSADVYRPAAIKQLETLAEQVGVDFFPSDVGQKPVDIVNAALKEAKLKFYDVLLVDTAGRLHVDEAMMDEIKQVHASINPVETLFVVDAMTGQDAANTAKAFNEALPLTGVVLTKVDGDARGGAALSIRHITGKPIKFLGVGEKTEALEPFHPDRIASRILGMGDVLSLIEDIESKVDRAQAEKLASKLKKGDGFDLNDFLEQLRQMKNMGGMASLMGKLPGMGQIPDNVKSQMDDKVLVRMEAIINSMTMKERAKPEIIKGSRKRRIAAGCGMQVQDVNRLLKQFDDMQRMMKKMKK
Experiment: native gel or EMSA; 20 nM Cy5-labelled 4.5S RNA, 200 nM Ffh incubated with the RNA for 10 min at room temperature, then 400 nM FtsYNG added; 1 mM GMP-PNP, 50 mM HEPES pH 7.5, 150 mM KCl, 1.5 mM MgCl2, 10% glycerol, 0.01% Igepal; 6% polyacrylamide gel run at 4°C; both purified

binding: binds
B1: NG domain of FtsY (residues 196-498) (domain or fragment, UniProt P10121 196-497)
chain: FARLKRSLLKTKENLGSGFISLFRGKKIDDDLFEELEEQLLIADVGVETTRKIITNLTEGASRKQLRDAEALYGLLKEEMGEILAKVDEPLNVEGKAPFVILMVGVNGVGKTTTIGKLARQFEQQGKSVMLAAGDTFRAAAVEQLQVWGQRNNIPVIAQHTGADSASVIFDAIQAAKARNIDVLIADTAGRLQNKSHLMEELKKIVRVMKKLDVEAPHEVMLTIDASTGQNAVSQAKLFHEAVGLTGITLTKLDGTAKGGVIFSVADQFGIPIRYIGVGERIEDLRPFKADDFIEALFARED
